Test results: US20230024384A1, “C[…] COMPOUND FOR TREATING FRAGILE X SYNDROME OR RELATED DEVELOPMENTAL DISORDERS” (NEUROVENTI, priority 2020, published 2023)

Legend:
[1] = test system: Cntnap2-deficient animal model (autism); assay: three-chamber test in Cntnap2-deficient autism animal model; format: in vivo, mouse; settings: Cntnap2 KO mice, lisuride intraperitoneally 50 ug/kg, single or 5 days treatment, FIG. 4
Description: Purchased a 5-week-old Cntnap2 knockout mouse (Jackson Laboratory, USA) weighing about 22 g to 24 g and acclimatize to an environment with a temperature of 23±2° C., humidity of 55±10%, and a light-dark cycle of 12 hours while allowing them to freely consume water and feed. After breeding (Konkuk University Laboratory Animal Center), they were used for experiments. Wild-type (WT) mice showing normal expression of Cntnap2 and KO mice lacking Cntnap2 expression were used. The dosing and testing were performed according to the age of the week. Dosing was performed at the same time. Behavioral experiments were conducted 30 minutes after administration. It was divided into groups administered with 1 mg/kg each of lisuride (Sigma Aldrich) or 0.25 (v/v) % DMSO in Cntnap2 expression-deficient knock-out mice or wild-type mice. For the drug administration group, lisuride was dissolved in 0.25% DMSO and then administered intraperitoneally at a dose of 50 ug/kg. Meanwhile, 0.25 (v/v) % DMSO was intraperitoneally administered to the control group.
To confirm the therapeutic effect of Iisuride on the lack of sociability, one of the phenotypes of developmental disorders, a three-chamber test was performed using an animal model lacking Cntnap2. Experimental results were expressed as a social interaction index by measuring the time the test mouse approaches or sniffs each stimulus mouse. […]

[2] = test system: animal model in which MK-801 was administered to wild-type mice; settings: wild-type mice given MK-801, FIG. 7

**Q.** Which “sociability: time spent and sniffing with novel versus familiar mouse (social interaction index)” value [1] does the source give for `CCN(CC)C(=O)N[C@H]1C=C2c3cccc4[nH]cc(c34)C[C@H]2N(C)C1` [lisuride, 1,1-Diethyl-3-(7-methyl-4,6,6a,7,8,9-hexahydro-indolo [4,3-fg]quinolin-9-yl)-urea] here?
**A.** spent more time and sniffed more with the novel mouse than the familiar mouse

**Q.** What about the “hyperactivity in open-field test” value [2] of the same molecule?
**A.** significantly reduced
